Each number is a percent effect as filed. The controls that fix the scale are not given in the record; negative values are as filed. This is an unselected part of the compounds tested. A dash means the value is not listed here; it may have been measured.

By UniProt entry, the sequences of proteins in these tests, tags left out. Residues count along the entry.
UniProt P9WNZ1, whole entry: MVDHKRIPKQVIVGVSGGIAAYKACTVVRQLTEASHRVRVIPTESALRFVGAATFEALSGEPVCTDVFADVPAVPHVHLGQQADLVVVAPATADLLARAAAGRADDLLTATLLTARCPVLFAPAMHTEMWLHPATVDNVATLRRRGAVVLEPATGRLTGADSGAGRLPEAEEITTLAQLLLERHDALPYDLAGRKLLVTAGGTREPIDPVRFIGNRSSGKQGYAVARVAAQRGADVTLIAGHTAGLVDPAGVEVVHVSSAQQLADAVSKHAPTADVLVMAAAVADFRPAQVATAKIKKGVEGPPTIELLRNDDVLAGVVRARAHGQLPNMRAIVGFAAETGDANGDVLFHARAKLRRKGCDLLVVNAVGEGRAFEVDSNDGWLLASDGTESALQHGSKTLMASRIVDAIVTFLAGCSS
UniProt I6X8D2, whole entry: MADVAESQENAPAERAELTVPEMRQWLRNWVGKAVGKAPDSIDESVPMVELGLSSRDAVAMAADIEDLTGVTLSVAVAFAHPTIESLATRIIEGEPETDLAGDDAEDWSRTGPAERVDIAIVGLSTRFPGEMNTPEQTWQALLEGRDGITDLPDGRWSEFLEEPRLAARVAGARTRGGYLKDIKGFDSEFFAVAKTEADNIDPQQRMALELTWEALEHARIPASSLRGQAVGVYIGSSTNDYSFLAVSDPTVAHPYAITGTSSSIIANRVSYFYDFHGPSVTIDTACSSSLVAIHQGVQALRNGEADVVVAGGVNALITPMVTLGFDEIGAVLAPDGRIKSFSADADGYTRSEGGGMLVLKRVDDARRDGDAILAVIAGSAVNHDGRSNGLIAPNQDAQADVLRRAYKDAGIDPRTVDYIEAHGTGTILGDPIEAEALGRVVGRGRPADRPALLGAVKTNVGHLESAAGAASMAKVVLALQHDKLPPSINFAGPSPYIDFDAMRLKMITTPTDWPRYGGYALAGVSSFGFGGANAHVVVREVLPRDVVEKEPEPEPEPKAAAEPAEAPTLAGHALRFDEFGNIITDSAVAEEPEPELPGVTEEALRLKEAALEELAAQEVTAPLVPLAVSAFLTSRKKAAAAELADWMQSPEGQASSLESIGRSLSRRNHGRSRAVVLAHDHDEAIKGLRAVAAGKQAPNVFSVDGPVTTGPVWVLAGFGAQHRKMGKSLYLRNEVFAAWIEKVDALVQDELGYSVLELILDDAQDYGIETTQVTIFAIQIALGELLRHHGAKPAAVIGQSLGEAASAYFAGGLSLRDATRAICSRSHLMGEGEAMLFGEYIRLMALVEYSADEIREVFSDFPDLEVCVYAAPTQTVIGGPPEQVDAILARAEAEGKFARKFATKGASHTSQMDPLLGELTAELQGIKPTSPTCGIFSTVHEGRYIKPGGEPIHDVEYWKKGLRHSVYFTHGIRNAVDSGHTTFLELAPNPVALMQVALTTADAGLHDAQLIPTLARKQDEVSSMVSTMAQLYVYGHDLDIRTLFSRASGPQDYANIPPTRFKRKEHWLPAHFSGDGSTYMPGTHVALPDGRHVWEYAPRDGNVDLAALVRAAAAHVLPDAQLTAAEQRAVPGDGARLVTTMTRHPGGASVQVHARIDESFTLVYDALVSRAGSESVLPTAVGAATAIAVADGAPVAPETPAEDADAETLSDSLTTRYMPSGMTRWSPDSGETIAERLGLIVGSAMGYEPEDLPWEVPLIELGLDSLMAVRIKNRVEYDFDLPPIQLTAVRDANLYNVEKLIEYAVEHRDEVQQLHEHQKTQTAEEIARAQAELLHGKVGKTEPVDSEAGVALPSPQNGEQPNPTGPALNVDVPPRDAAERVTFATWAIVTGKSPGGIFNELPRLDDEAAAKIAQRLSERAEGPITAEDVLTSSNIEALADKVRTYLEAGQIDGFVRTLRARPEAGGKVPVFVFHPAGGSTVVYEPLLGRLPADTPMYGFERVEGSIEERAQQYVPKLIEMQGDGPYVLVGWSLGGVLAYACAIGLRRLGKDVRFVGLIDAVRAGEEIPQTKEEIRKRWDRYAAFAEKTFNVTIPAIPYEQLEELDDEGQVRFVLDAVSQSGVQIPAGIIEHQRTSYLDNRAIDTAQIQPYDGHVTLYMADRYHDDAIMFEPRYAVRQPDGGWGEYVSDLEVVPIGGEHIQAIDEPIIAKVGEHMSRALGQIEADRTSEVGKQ
UniProt P9WPC5, whole entry: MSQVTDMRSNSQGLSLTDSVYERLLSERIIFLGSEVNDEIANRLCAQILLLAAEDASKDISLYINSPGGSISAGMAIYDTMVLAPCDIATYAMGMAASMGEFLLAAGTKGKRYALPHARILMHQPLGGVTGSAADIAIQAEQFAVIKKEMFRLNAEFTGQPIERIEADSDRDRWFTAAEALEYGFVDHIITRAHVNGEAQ
UniProt P9WPC3, whole entry partner: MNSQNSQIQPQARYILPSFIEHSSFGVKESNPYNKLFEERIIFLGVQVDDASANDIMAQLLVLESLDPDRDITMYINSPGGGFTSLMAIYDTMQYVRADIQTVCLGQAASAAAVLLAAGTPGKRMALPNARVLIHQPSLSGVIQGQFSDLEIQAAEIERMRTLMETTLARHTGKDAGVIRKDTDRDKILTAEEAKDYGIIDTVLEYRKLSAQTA
UniProt A4I591, 1-473: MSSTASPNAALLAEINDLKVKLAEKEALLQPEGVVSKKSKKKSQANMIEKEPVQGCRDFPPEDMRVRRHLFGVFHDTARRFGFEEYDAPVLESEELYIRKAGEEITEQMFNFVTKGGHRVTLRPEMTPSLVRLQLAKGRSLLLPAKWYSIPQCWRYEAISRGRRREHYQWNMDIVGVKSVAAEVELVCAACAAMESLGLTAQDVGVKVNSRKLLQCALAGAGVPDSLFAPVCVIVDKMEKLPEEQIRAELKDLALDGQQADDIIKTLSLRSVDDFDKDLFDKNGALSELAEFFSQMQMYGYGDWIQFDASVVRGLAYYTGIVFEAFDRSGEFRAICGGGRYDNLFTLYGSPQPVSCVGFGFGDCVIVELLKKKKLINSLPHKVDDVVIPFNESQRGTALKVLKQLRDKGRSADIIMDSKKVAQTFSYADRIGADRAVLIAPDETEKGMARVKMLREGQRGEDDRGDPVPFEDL
UniProt P9WFT3, whole entry: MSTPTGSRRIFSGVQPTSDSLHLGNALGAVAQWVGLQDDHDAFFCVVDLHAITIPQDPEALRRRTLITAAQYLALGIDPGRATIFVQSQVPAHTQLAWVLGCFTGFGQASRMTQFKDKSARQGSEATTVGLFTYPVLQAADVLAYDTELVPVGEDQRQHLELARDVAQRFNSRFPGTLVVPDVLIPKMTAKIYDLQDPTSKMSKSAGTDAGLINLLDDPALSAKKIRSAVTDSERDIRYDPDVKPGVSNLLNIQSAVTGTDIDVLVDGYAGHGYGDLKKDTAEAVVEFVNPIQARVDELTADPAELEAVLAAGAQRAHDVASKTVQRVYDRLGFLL

CoaBC: 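Coenzyme A biosynthesis protein CoaBC, Mycobacterium tuberculosis (UniProt P9WNZ1). Enzyme assay of CoaBC with a phosphate dye (Biomol Green) read at 650 nm. Tested at 30 µM. Higher reads as stronger inhibition, judged from the few compounds that gave an IC50. Most strong results did not repeat in a second test. About 67,000 compounds were tested under these conditions; 0.06% (about 40) showed 50% or more at least once.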
Pks13 thioesterase: 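Polyketide synthase Pks13, Mycobacterium tuberculosis (UniProt I6X8D2). Enzyme assay of the thioesterase domain of polyketide synthase 13; the read-out is not stated. Concentration: 30 µM. The record gives no direction; the compounds picked for IC50 retests had high values, so higher reads as stronger inhibition. About 67,000 compounds were tested under these conditions; 0.46% (about 300) showed 50% or more at least once.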
ClpP1P2: 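Protease assay of ClpP1P2, read by the AMC dye that it sets free. Target: ClpP1P2, Mycobacterium tuberculosis (UniProt P9WPC5 and UniProt P9WPC3). Compounds at 50 µM. Higher reads as stronger inhibition, judged from the few compounds that gave an IC50. Most other retested compounds had strongly negative values. Of about 69,000 compounds tested this way, about 10 (0.015%) reached 50% or more in at least one test.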
Toxoplasma: 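Assay of Toxoplasma gondii numbers, read through their beta-galactosidase reporter with a colour substrate. Tested at 10 µM. The record gives no direction; the compounds picked for IC50 retests had high values, so higher reads as fewer parasites. Of about 67,000 compounds tested this way, about 260 (0.38%) reached 50% or more in at least one test.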
LiHisRS: 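Enzyme assay of histidyl-tRNA synthetase; the read-out is not stated. Target: Histidine-tRNA ligase, Leishmania infantum (UniProt A4I591). Concentration: 30 µM. The record gives no direction; compounds that gave an IC50 in retests scored well above the rest, so higher reads as stronger inhibition. The assay is labelled LdHisRS but filed under L. infantum. Size under these conditions: about 69,000 compounds, about 410 of them at 50% or above in at least one test.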
MtTrpRS: 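Enzyme assay of tryptophanyl-tRNA synthetase; the read-out is not stated. Target: Tryptophan-tRNA ligase, Mycobacterium tuberculosis (UniProt P9WFT3). Concentration: 10 µM. Higher most likely means stronger inhibition; the record gives no direction and few retests gave an IC50. Of about 65,000 compounds tested this way, about 64 (0.098%) reached 50% or more in at least one test.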

structure | CoaBC | Pks13 thioesterase | ClpP1P2 | Toxoplasma | LiHisRS | MtTrpRS
O=C(c1ccc2ccccc2n1)N1CCC2(CCN2c2ncccn2)C1 (centres undefined) | 9.208% | -10.71% | 32.1% | - | 24.47% | 2.061%
O=C(O)C(F)(F)F.O=C(c1ncccn1)N1CCC[C@]2(C[C@@H](Oc3ncccc3F)CO2)C1 | - | - | - | -11.98% | - | -
COCCSCC(=O)NC1(c2cccc(Br)c2)CC1 | 4.167% | -20.19% | -14.64% | -0.6321% | 9.589% | 2.381%
CC(=O)Nc1c(C)noc1/C=C\c1ccc(S(=O)(=O)N2CCCC2)cc1 | 1.449% | 12.91% | -1.86% | 5.664% | 4.11% | -2.545%
Cc1nn(C)c2ncc(CN3CCN(c4ncccn4)CC3)cc12 | -2.163% | 6.663% | -6.979% | 5.448% | 17.07% | -2.524%
CCC1CN(C(=O)c2cnc(-c3ccccc3)s2)CCO1 (centres undefined) | 0.4202% | -0.9055% | -0.8223% | 5.775% | 16.24% | 4.803%
CN1CCCN(c2nc(C3CCCC3)nc3c2cnn3C)CC1 | -19.41% | -29.24% | 0.6666% | 6.932% | 28.77% | -1.526%
Cc1ccc(CN2CC[C@@H]3O[C@@H](C(=O)N4CCN(C)CC4)C[C@@H]32)cc1 | 2.061% | -12.52% | -4.251% | - | 9.615% | -
FC(F)(F)c1ccc(CN2CCN(Cc3cscn3)CC2)cc1 | 4.968% | -7.35% | 0.8045% | 4.285% | 19.83% | -3.824%
CC(C)CS(=O)(=O)Nc1ccc([C@H]2OCC(=O)N[C@@H]2CO)cc1 | 19.45% | -30.1% | -3.09% | -3.545% | 24.32% | 2.212%
c1cc(CNCC2OCCc3cn(CC4CC4)nc32)cs1 (centres undefined) | -11.58% | -17.11% | 3.011% | - | 20.35% | 3.904%
Nc1cc(N2CCCC(CO)(Cc3ccccc3F)C2)nc(N)n1 (centres undefined) | -29.51% | -20.49% | -3.287% | -0.6325% | 16.81% | 4.941%
CCCn1c(C)c(CC(=O)NCCC(N)=O)c2c1CC(C)(C)CC2=O | 1.015% | -24.92% | -12.81% | 11.8% | 5.882% | -4.454%
CNC(=O)c1cc(C)n(-c2cccc(OC)c2)c1C | 3.15% | - | -7.318% | -2.158% | 11.86% | 14.33%
CCOc1ncccc1NC(=O)N1CCCC(CNC(N)=O)C1 (centres undefined) | 6.6% | -7.056% | -19.88% | 23.65% | 14.68% | 0.387%
CCN1CCc2[nH]nc(C(=O)N3CCCC3C)c2C1.O=C(O)C(F)(F)F (centres undefined) | - | - | - | -9.111% | - | -
COc1ncccc1C(Cc1ccsc1)NC(=O)Cn1cccnc1=O (centres undefined) | -1.453% | -13.85% | 24.92% | -4.432% | 20.62% | -
Cc1nc(CN2CCCC(NCc3cccc4ccccc34)C2)no1 (centres undefined) | 2.968% | -20.72% | 2.782% | -17.1% | 12.17% | 5.842%
CCCc1nc(CN(CC)Cc2ccoc2)no1 | 2.408% | -33.21% | -6.843% | -3.83% | 11.39% | 1.613%
COc1ccc(Cl)cc1CNC(=O)CN1CCC2(CCOC2)C1 (centres undefined) | 4.715% | -22.8% | -17.24% | -4.005% | 14.89% | 0.1904%
CCCOc1ccc(CCC(=O)Nc2nonc2C)cc1 | -2.344% | -4.74% | -9.7% | -8.88% | 14.61% | 0.7282%
COC(=O)c1cccc(CN(C)C(C)c2ccccn2)c1 (centres undefined) | 1.58% | 2.414% | -0.5908% | - | 17.39% | 3.376%
CN1CC[C@H]2OCC[C@@]2(C(=O)NCCc2ccccn2)C1 | -0.9009% | -46.66% | 6.412% | - | 13.46% | 8.866%
CN1CCN(C)C(CNC(=O)N(C)Cc2ccccc2Cl)C1 (centres undefined) | 5.469% | -22.79% | 12.56% | 17.63% | 12.36% | -6.877%
CN(C)Cc1cnc2n1CCN(C(=O)Cc1ccc(F)cc1)CC2.O=C(O)C(F)(F)F | - | - | - | -4.261% | - | -
N#CCCN(CC1CC1)Cn1cc(Cl)cn1 | 1.168% | 6.977% | -8.613% | -6.384% | 15.04% | -2.825%
CCSc1ccccc1C(=O)NCC1CCN(Cc2ccsc2)CC1 | 2.286% | -4.123% | -2.317% | 25.02% | 15.73% | 1.761%
CN(C)c1cc(C2CCCN2C(=O)c2ccc(=O)n(C)c2)ccn1 (centres undefined) | 7.54% | -2.519% | -2.418% | 8.504% | 8.966% | 0.7843%
Cn1cc(CN2CCC[C@]3(C[C@@H](Oc4ncccc4F)CO3)C2)cn1 | 2.303% | 1.919% | 0.7612% | - | 17.31% | -
c1csc(CCN2CCCC2c2noc(C3CC3)n2)c1 (centres undefined) | 9.287% | -13.65% | 2.64% | -5.971% | 8.571% | 3.023%
Cc1cccc(OC2CCN(c3nccnc3C#N)CC2)n1 | 3.667% | 85.35% | -30.2% | -4.952% | 3.226% | -1.801%
CCOc1ccnc(N2CCN(C(=O)c3ccoc3)CC2)n1 | -0.3911% | -4.749% | -5.904% | -6.973% | -2.632% | 6.187%
COc1ccc(CN2CCc3c(CNC(=O)CC#N)nn(C)c3C2)cc1.O=C(O)C(F)(F)F.O=C(O)C(F)(F)F | - | - | - | -1.193% | - | -
CCN(CC)S(=O)(=O)CC(=O)Nc1ccsc1 | 3.067% | -2.38% | -0.2129% | -5.933% | 5.882% | 0.5757%
CC1=Nc2c(c(O)nn2C(C)C)C(c2cn(C)nc2C)S1 (centres undefined) | -9.211% | -24.39% | -3.473% | 7.846% | 16.55% | 17.03%
O=C(O)C(F)(F)F.O=C(O)C(F)(F)F.[H][C@@]12C[C@H](C(=O)Nc3cccnc3)CN(CC3CC3)[C@]1([H])CCO2 | - | - | - | -1.486% | - | -
CS(=O)(=O)c1ccc(CNC[C@H]2COCc3nc4ccccc4n32)cc1 | 6.095% | -22.11% | -7.783% | 0.5405% | 16.67% | -2.636%
O=C(O)C(F)(F)F.O=C([C@H]1CCCO1)N1CCCC2(COCCN(c3ccccc3)C2)C1 (some centres undefined) | - | - | - | -3.423% | - | -
CCOC(=O)[C@@H]1[C@@H](c2ccccc2)CN2CCN(C(C)=O)C[C@H]12 | -1.211% | 0.569% | -17.01% | - | 10.2% | -
Cc1n[nH]c(C)c1NC(=O)CCc1cccc(C2CCCN(C)C2)n1 (centres undefined) | 1.453% | -8.41% | -1.19% | -19.06% | 6.186% | -
CC(NC(=O)Nc1cccnc1N1CCCC1)c1ccccn1 (centres undefined) | 7.018% | -32.08% | 4.382% | 4.74% | 15% | -1.068%
Cc1cccc(CC(=O)N2CCCC(N(C)CCCN(C)C)C2)c1 (centres undefined) | -4.854% | 16.54% | -3.202% | -7.895% | 5.882% | 6.51%
Cc1cnc(C(C)(C)NC(=O)NCc2cccnc2OC(C)C)s1 | 6.048% | -18.07% | 1.91% | 2.401% | 12.28% | -2.058%
O=C(O)C(F)(F)F.[H][C@@]12C[C@@H](c3nc(C4CC4)cs3)O[C@]1([H])CN(c1ncc(F)cn1)C2 | - | - | - | 33.6% | - | -

5 of the entries, repeated:

Result for COc1ncccc1C(Cc1ccsc1)NC(=O)Cn1cccnc1=O (centres undefined) was CoaBC: -1.453%; Pks13 thioesterase: -13.85%; ClpP1P2: 24.92%; Toxoplasma: -4.432%; LiHisRS: 20.62%.
Result for CCSc1ccccc1C(=O)NCC1CCN(Cc2ccsc2)CC1 was CoaBC: 2.286%; Pks13 thioesterase: -4.123%; ClpP1P2: -2.317%; Toxoplasma: 25.02%; LiHisRS: 15.73%; MtTrpRS: 1.761%.
Result for CC1=Nc2c(c(O)nn2C(C)C)C(c2cn(C)nc2C)S1 (centres undefined) was CoaBC: -9.211%; Pks13 thioesterase: -24.39%; ClpP1P2: -3.473%; Toxoplasma: 7.846%; LiHisRS: 16.55%; MtTrpRS: 17.03%.
Result for CN(C)Cc1cnc2n1CCN(C(=O)Cc1ccc(F)cc1)CC2.O=C(O)C(F)(F)F was Toxoplasma: -4.261%.
Result for O=C(O)C(F)(F)F.O=C(c1ncccn1)N1CCC[C@]2(C[C@@H](Oc3ncccc3F)CO2)C1 was Toxoplasma: -11.98%.

Data taken from ChEMBL document CHEMBL3988442, “University of Dundee, Small-Polar-MMV Screening Library” (2021).